Source: PubChem BioAssay AID2718 (Broad Institute, 2010)
The campaign covered roughly 320,000 compounds. About 480 (0.15%) were called active. Inconclusive means that the source gave no clear call. Such entries were picked first, then a sample of the others. No stated cut-off is given here; in the data, active means inhibition above about 26% (passing the limit was not always enough); inconclusive means no clear call, values can overlap the other calls.

The chains behind the UniProt entries cited, without tags or fusion partners.
UniProt O15379, whole entry, looked up: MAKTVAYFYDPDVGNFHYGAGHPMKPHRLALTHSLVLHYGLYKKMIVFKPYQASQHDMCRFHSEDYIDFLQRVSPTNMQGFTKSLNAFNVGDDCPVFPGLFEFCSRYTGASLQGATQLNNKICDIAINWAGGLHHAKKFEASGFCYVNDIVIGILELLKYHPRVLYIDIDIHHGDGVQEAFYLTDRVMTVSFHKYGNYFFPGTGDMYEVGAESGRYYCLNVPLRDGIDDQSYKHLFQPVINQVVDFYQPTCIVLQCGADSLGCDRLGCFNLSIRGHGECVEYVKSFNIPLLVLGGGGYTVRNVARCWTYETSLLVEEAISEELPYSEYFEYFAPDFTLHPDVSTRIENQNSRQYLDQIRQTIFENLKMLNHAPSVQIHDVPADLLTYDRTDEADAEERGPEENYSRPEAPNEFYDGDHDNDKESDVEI

Target: Histone deacetylase 3 (Homo sapiens) (UniProt O15379)
Experiment: HDAC3 deacetylase inhibitors, primary screen, biochemical, fluorescence, cell-free homogeneous (AID 2718)
Conditions: recombinant HDAC3, fluorogenic peptide/trypsin coupled, at 8.3 µM, hits give high values

Row | SMILES | inhibition
1 | CCOc1cc(/C=N/Nc2nc(=O)[nH]nc2C)ccc1O | inconclusive: 22.4%
2 | CC(C)c1ccc(NC2CCCN(C(=O)C3=NN(C)C(=O)CC3)C2)cc1 (stereo not drawn) | inactive: -4.34%
3 | CCOc1ccc2nc(NC(=O)CC3Oc4ccccc4NC3=O)sc2c1 (stereo not drawn) | inconclusive: 26.4%
4 | CCc1nc(Nc2ccccc2)c2oc3ccccc3c2n1 | inactive: -1.9%
5 | COc1ccc(NS(=O)(=O)c2ccc(C)c(C(=O)N(C)CC(=O)Nc3cccc(OC)c3)c2)cc1 | inconclusive: 16.8%
6 | O=C1CC(SCCc2nc3ccccc3[nH]2)C(=O)N1c1ccc(F)c(Cl)c1 (stereo not drawn) | inactive: -2.82%
7 | O=C(C[n+]1cccc(CO)c1)Nc1nc2ccccc2s1 | inactive: 0.443%
8 | CNC(=O)Cn1nc(C)c(S(=O)(=O)N2CCOCC2)c1C | inconclusive: 25.5%
9 | CC1CCN(CCC(=O)Nc2ccccc2)CC1 | inconclusive: 16.8%
10 | Cc1cccc2cc(CN(CC3CCCO3)C(=O)c3cccnc3)c3nnnn3c12 (stereo not drawn) | inconclusive: 17.6%
11 | CN(C)CCCN(C(=O)CCS(=O)(=O)c1ccccc1)c1nc2cc3c(cc2s1)OCO3 | inactive: 6.63%
12 | N#Cc1c(NC(=O)c2ccccc2)sc2c1CCCCC2 | inactive: -1.21%
13 | O=C(c1ccc(F)cc1)C1CCN(C(=O)Nc2ccc(F)cc2F)CC1 | inconclusive: 15.5%
14 | CCOc1cc(S(=O)(=O)Nc2ccncc2)ccc1F | inconclusive: 23.1%
15 | Cc1ccccc1NC(NC(=O)OCCn1c([N+](=O)[O-])cnc1C)C(Cl)(Cl)Cl (stereo not drawn) | inconclusive: 30.3%
16 | O=C(NCc1ccccc1)c1cccc(NS(=O)(=O)c2cccc3cccnc23)c1 | inactive: 1.26%
17 | Cc1ccc(C(=O)NCC(c2ccco2)N2CCc3ccccc3C2)cc1C (stereo not drawn) | inconclusive: 26.3%
18 | CN(c1ccccc1)S(=O)(=O)c1ccc(NC(=O)c2ccco2)cc1 | inconclusive: 14.7%
19 | CCOc1ccccc1NC(=O)NCc1ccc2c(c1)OCO2 | inactive: 1.78%
20 | CCC1(C)Cc2c(sc3nc(NN)n(C)c(=O)c23)CO1 (stereo not drawn) | inactive: 0.79%
21 | COc1ccc(OC)c(NC(=O)CN2CCc3ccccc3C2)c1 | inactive: -5.49%
22 | CCOC(=O)c1sc(NC(=O)c2ccc(S(=O)(=O)N3CCOCC3)cc2)cc1C | inconclusive: 20.5%

Row | SMILES | inhibition
23 | O=C(CN(CC1CCCO1)C(=O)CCC(=O)Nc1nccs1)NCC1CCCO1 (stereo not drawn) | inactive: -1.93%
24 | Cc1ccc(O)c(C(=O)c2cc(C#N)c(=O)n(Cc3ccccc3)c2)c1 | inconclusive: 20.9%
25 | O=C(NC1CCS(=O)(=O)C1)c1cccc(Cl)c1 (stereo not drawn) | inactive: -2.67%
26 | COc1ccc(Cl)cc1-c1nc(SCC(=O)NCC2CCCO2)n[nH]1 (stereo not drawn) | inactive: 3.78%
27 | CCOc1ccc2nc(N=NC3=C(O)CC(C)(C)CC3=O)sc2c1 | inactive: 9.63%
28 | CCn1c(SCC(=O)N/N=C/C=C/c2ccco2)nnc1-c1ccccc1 | inconclusive: 17.5%
29 | Cc1cccc(N2C(=O)c3cccc4c(N)ccc(c34)C2=O)c1 | inconclusive: 10.3%
30 | CCOC(=O)c1cnc(-n2nc(C)cc2C)nc1-n1nc(C)cc1C | inconclusive: 19%
31 | Cn1c2ccccc2c2nnc(SCc3nnc(-c4ccccc4)o3)nc21 | inconclusive: 23.6%
32 | CCN(CC)S(=O)(=O)c1ccc2c(c1)nc(SCC(N)=O)n2-c1ccc(OC)cc1 | inconclusive: 16.1%
33 | Fc1ccc(OCc2nn3cnnc3s2)cc1 | inconclusive: 21.7%
34 | Cc1ccc(CNS(=O)(=O)NCc2ccccc2F)cc1 | inconclusive: 16.5%
35 | COc1ccc(NC(=O)N2CCCC2C(=O)Nc2cccc(C)c2C)cc1 (stereo not drawn) | inconclusive: 22.4%
36 | CC1CCCCC1NC(=O)Cn1ncc2ccccc21 (stereo not drawn) | inactive: 5.27%
37 | COc1ccc(C2CC(c3ccccc3)=NN2c2ccc(S(N)(=O)=O)cc2)cc1OC (stereo not drawn) | inactive: -19.6%
38 | Cc1occc1C(=O)NCc1ccccc1 | inactive: -6.63%
39 | CCCCN(C(=O)C(C)N1C(=O)c2ccccc2C1=O)c1c(N)n(CC(C)C)c(=O)[nH]c1=O (stereo not drawn) | inactive: 0.503%
40 | CCN1C(=O)/C(=C/c2ccc(C)s2)NC1=S | inconclusive: 19.3%
41 | O=C(Nc1ccc(F)c(Cl)c1)c1ccc2c(=O)n3c(nc2c1)CCCCC3 | inactive: -5.41%
42 | Cc1ccc2cc(CN(CCCN3CCOCC3)C(=O)NC3CCCCC3)c(=O)[nH]c2c1C | inactive: -1.07%
43 | O=C(Nc1ccccc1C(F)(F)F)N1CCCC1c1cccnc1 (stereo not drawn) | inconclusive: 42.8%
44 | CC1CCN(S(=O)(=O)c2ccc(C(=O)Nc3ncccc3O)cc2)CC1 | active: 63.8%

Fetched by structure from above:
Row | SMILES | inhibition
34 | Cc1ccc(CNS(=O)(=O)NCc2ccccc2F)cc1 | inconclusive: 16.5%
41 | O=C(Nc1ccc(F)c(Cl)c1)c1ccc2c(=O)n3c(nc2c1)CCCCC3 | inactive: -5.41%

Going on with the list.

Row | SMILES | inhibition
45 | CC(C)(C)NC(=O)c1ccc2c(c1)N(CC(=O)N1CCN(c3ccccc3F)CC1)C(=O)C(C)(C)O2 | inconclusive: 24.9%
46 | O=C(N/N=C/c1ccsc1)c1ccc2c(c1)OCO2 | inconclusive: 9.33%
47 | CC(C)Oc1ccc(CCN=C(N)N=C(N)N)cc1Cl | inconclusive: 11.9%
48 | Cn1nc(C(F)(F)F)c2cc(NC(=O)OCc3ccc(F)cc3)sc21 | inactive: 19.6%
49 | COc1cccc(-n2c(SCC(=O)Nc3cc(C)on3)nc3c([nH]c4ccccc43)c2=O)c1 | inconclusive: 12.9%
50 | COc1cc(/C=N/NC(=O)c2cc(-c3ccccc3OC(C)C)nc3ccccc23)ccc1O | inconclusive: 18.8%
51 | O=c1cc(-c2ccccc2)[nH]c2[nH]n(-c3ccccc3)c(=O)c12 | inactive: 1.44%
52 | CCn1c(C)nc2cc(C(=O)NNC(=S)Nc3ccc(F)cc3)ccc21 | inconclusive: 14.7%
53 | Cc1ccc(S(=O)(=O)NN2C(=O)/C(=C/c3cccnc3)SC2=S)cc1 | inactive: 8.34%
54 | NC(=O)[C@@H]1CC2(CC(c3cccc(NC(=O)CC(c4ccccc4)c4ccccc4)c3)=NO2)CN1C(=O)[C@@H]1CCC(=O)N1 (stereo partly drawn) | inconclusive: 26.9%
55 | Cc1ccccc1N1CCN(S(=O)(=O)c2nnc(NC(=O)c3ccco3)s2)CC1 | inactive: -2.02%
56 | Cc1ccc2c(c1)c1c(n2CC(O)Cn2c(C)nc3ccccc32)/C(=N\O)CCC1 (stereo not drawn) | active: 28.1%
57 | CC1CCN(S(=O)(=O)c2cccc(C(=O)N3CCN(c4ccc(F)cc4)CC3)c2)CC1 | inactive: 1.43%
58 | COc1cc(CCC(C)=O)ccc1OC(=O)c1c(F)cccc1Cl | inconclusive: 15.2%
59 | COC(=O)CSC1=NS(=O)(=O)c2ccccc21 | active: 54.1%
60 | Nc1nc(Sc2c([N+](=O)[O-])cc(C(F)(F)F)cc2[N+](=O)[O-])n[nH]1 | inconclusive: 22.4%
61 | COc1ccc(CCNC(=S)N2CCC(C(=O)c3ccc(F)cc3)CC2)cc1OC | inconclusive: 22.9%
62 | CC(C)CC(COCc1cccc(C(F)(F)F)c1)N1CCN(C(=O)c2cccc(C(F)(F)F)c2)CCC1=O (stereo not drawn) | inconclusive: 34.2%
63 | COc1cc(/C=N/n2cnnc2)ccc1OC(=O)c1ccco1 | active: 27.3%
64 | CN(C)S(=O)(=O)n1cnc([C@@H]2[C@@H]3C(=O)OC[C@@H]3C[C@]23N=CN(Cc2ccccc2)C3=O)c1 | inconclusive: 14.9%
65 | O=C(COC(=O)CN1C(=O)NC2(CCCC2)C1=O)Nc1ccccc1C(F)(F)F | inconclusive: 33.5%
66 | Cc1ccc(S(=O)(=O)N2CCCCC2)cc1C(=O)OC1CCCCC1=O (stereo not drawn) | inactive: 4.78%

Row | SMILES | inhibition
67 | O=C(O)COc1ccc(C(=O)Cc2ccc3c(c2)OCCCO3)c(O)c1 | inconclusive: 22%
68 | COc1cc(/C=C2\SC(=S)N(CC(=O)NC3=NCCS3)C2=O)cc(OC)c1OC | inconclusive: 20.5%
69 | Cc1cc(C)n(-c2ccc(C(=O)NCC(=O)Nc3cc(Cl)ccc3Cl)cc2)n1 | inconclusive: 10.8%
70 | CCCCC(CCC(=O)O)(C(=O)OCC)c1csc(Nc2ccc(OCC)cc2)n1 (stereo not drawn) | inactive: 8.38%
71 | O=C(C1CCCN(S(=O)(=O)c2cccc3nonc23)C1)N1CCC(Cc2ccccc2)CC1 (stereo not drawn) | inconclusive: 24.5%
72 | COc1ccc(/C=C/C(=O)NC(=S)N2CCSCC2)cc1 | inconclusive: 19.2%
73 | COC(=O)C(C)Sc1n[nH]c(=S)s1 (stereo not drawn) | active: 31.2%
74 | COc1ccc(-c2nnc(SC)n2C)cc1 | inconclusive: 17%
75 | CCc1ccc(C(=O)CSc2nc(N)cc(=O)[nH]2)cc1 | inactive: 0.415%
76 | CCCNC(=O)C1CCN(S(=O)(=O)c2ccc3[nH]c(=O)ccc3c2)CC1 | inactive: -0.866%
77 | CCC(C)(C)NC(=O)C(c1cccn1C)N(Cc1ccc(OC)cc1)C(=O)Cn1nnc2ccccc21 (stereo not drawn) | inconclusive: 28.3%
78 | COCCCNC(=O)C1=CCN(S(=O)(=O)c2ccc(C)cc2)CC1 | inconclusive: 17.1%
79 | CCOC(=O)C1=C(C)NC(=O)NC1c1ccc(-c2ccc(Cl)cc2)o1 (stereo not drawn) | active: 50.5%
80 | COc1ccc(/C=C(\C#N)C(=O)NC(C)c2ccccc2)cc1O (stereo not drawn) | inactive: 7.69%
81 | O=C1CCCC(O)=C1Sc1ccccc1C(=O)O | inconclusive: 18.4%
82 | COc1ccc(/C=N/Nc2nc(=O)[nH]nc2C)cc1OC | inconclusive: 22.3%
83 | CCc1ccc(CNC(=O)c2ccc(NC(=O)C3=CSCCO3)cc2)cc1 | inconclusive: 10.7%
84 | Cc1cccc(C)c1NC(=O)CSc1nnc(C)n1CC1CCCO1 (stereo not drawn) | inconclusive: 16.1%
85 | O=C(CCNS(=O)(=O)c1ccc(Br)cc1)NCc1ccc(F)cc1 | inconclusive: 19.6%
86 | COc1ccc(C)cc1-n1c(N)c(C#N)c(C#N)c1-c1ccc(OC)c(OC)c1OC | inconclusive: 15.4%
87 | CCN(CC)c1ccc(C(=O)N/N=C/c2ccccc2OC(F)F)cc1 | inconclusive: 23.5%
88 | O=C(NCCN1CCN(C(=O)c2cccs2)CC1)c1cccs1 | inconclusive: 16%

Nos. 73 to 75, quoted:
Row | SMILES | inhibition
73 | COC(=O)C(C)Sc1n[nH]c(=S)s1 (stereo not drawn) | active: 31.2%
74 | COc1ccc(-c2nnc(SC)n2C)cc1 | inconclusive: 17%
75 | CCc1ccc(C(=O)CSc2nc(N)cc(=O)[nH]2)cc1 | inactive: 0.415%
